Laboratory results as given in patent US4798834A, “Optionally substituted (3β-9,10-didehydro-2,3-dihydro ergoline as serotonergic function enhancement” (Eli Lilly and Company, priority 1987, dated 1989).
Some results were stated once for a whole list of compounds, not compound by compound.

Test system: serotonin and 5-HIAA in rat brain
Type: in vivo, rat (Wistar)
Conditions: subcutaneous, 1 h after injection
Experimental: Male Wistar rate (HSD/[WI]BR) weighing about 150 g were kept in a temperature-controlled (24° C.) and light-controlled room (lights on from 7:00 A.M. to 7:00 P.M.) with food and water freely available. The compounds to be tested were dissolved in dilute hydrochloric acid and injected subcutaneously. Five rats per group were used in each experiment. The rats were decapitated one hour after injection and the brains were excised quickly, frozen on dry ice and stored at -15° C. before analysis. […] Neurosci. Abstr. […] Serum corticosterone levels were determined spectrofluorometrically by the method of Solem et al., Scand. J. Clin. Lab. Invest. […] 80, 1.

SMILES	concentration of 5-HIAA in the brain (in words)	concentration of serotonin in the brain (in words)
C[C@@H]1C=C2c3cccc4c3[C@@H](CN4)C[C@H]2N(C)C1 [Example 1, (3β)-2,3-Dihydrolysergine]	decrease the concentration of 5-HIAA in the brain	increase the concentration of serotonin
C[C@H]1C=C2c3cccc4c3[C@@H](CN4)C[C@H]2N(C)C1 [Example 2, (3β)-2,3-Dihydroisolysergine]	decrease the concentration of 5-HIAA in the brain	increase the concentration of serotonin
CN1C[C@H](CO)C=C2c3cccc4c3[C@@H](CN4)C[C@H]21 [Example 3, (3β)-2,3-Dihydrolysergol]	decrease the concentration of 5-HIAA in the brain	increase the concentration of serotonin
CSC[C@@H]1C=C2c3cccc4c3[C@@H](CN4)C[C@H]2N(C)C1 [Example 5, (3β,5β,8β)-9,10-Didehydro-2,3-dihydro-6-methyl-8-(methylthiomethyl) ergoline]	decrease the concentration of 5-HIAA in the brain	increase the concentration of serotonin
